Results are given in words; binding and its absence hold for the method and conditions named. For some assays here: In cells and extracts the contact can be indirect. Some binding calls cover weakened binding; strength is not graded here.

Protein sequences, listed by entry. Tags and fused reporters are not part of them. Lines headed by an entry give the natural chain unless they say otherwise; changes in a name come on top. Chains listed by the source or under a name are the forms on record and can include a tag or linker. Residues count along the entry.
HA-Cdt 2-345 (O88566, residues 2-345): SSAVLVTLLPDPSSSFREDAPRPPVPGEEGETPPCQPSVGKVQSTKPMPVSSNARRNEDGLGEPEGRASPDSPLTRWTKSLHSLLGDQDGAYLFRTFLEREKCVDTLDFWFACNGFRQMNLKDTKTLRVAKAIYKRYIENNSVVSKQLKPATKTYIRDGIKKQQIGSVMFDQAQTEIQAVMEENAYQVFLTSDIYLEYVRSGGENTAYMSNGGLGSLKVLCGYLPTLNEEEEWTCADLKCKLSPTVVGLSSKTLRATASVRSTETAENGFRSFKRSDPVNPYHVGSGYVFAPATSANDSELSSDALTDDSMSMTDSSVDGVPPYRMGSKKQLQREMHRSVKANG
GST-Cdt 2-210 (O88566, residues 2-210): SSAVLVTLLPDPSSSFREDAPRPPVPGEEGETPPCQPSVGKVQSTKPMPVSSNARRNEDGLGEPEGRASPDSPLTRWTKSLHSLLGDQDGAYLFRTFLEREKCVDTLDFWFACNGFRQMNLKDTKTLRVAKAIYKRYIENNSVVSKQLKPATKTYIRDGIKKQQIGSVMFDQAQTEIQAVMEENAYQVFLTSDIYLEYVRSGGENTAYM
GST-RGS^Cdt (Conductin aa 67-210) (O88566, residues 67-210): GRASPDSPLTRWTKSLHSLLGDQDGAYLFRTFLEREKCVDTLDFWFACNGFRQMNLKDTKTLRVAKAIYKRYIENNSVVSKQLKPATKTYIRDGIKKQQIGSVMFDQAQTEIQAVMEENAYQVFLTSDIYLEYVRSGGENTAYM
GFP-RGS^Cdt (Conductin aa 71-211) (O88566, residues 71-211): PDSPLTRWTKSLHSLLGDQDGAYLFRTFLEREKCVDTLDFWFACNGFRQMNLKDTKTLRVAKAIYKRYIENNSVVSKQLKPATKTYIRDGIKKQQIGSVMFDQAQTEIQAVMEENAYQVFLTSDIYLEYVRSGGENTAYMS
GFP-Cdt 2–345 QVL (L99R Q188P V189S) (O88566, form named): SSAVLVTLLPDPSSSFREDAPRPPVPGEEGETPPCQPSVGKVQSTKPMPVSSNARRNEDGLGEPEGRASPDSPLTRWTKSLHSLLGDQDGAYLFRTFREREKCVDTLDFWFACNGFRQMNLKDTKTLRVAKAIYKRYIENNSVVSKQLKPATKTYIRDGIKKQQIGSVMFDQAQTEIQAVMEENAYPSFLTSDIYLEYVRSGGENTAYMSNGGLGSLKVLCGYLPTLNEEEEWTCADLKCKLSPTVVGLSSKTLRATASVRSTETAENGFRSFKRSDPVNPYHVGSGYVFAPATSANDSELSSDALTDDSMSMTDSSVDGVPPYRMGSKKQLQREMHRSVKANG
GFP-RGS^Cdt QVL (L99R Q188P V189S) (O88566, form named): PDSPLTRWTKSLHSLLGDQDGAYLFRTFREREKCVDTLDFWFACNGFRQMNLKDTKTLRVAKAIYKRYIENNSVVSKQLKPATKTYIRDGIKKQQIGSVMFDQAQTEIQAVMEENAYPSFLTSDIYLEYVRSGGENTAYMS
UniProt P04899: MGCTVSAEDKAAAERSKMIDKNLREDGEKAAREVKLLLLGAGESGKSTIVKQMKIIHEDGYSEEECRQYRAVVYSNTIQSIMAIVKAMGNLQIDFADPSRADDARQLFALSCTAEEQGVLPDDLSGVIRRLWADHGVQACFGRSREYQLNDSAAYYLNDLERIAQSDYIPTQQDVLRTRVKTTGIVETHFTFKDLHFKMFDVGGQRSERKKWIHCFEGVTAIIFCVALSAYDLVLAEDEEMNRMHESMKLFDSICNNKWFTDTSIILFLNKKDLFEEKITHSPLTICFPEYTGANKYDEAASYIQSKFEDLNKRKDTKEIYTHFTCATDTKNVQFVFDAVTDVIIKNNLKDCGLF

These results are taken from publication PMC8814139.

The target of experiment [1] is GFP-Cdt 2-345 (UniProt O88566). Put plainly: sucrose density ultracentrifugation; lysates of transfected HEK293T cells (Triton X-100 buffer) on a linear 12.5-50% sucrose gradient, 201,000g, 16 h, 25 °C; fractions analysed by Western blotting. A general note: Immunoblotting shows a protein as a band on a membrane.
For experiment [2], the target named is GFP-Cdt 2-345 (UniProt O88566). The experiment in a line: native gel or EMSA; lysates of transfected HEK293T cells separated by polyacrylamide gel electrophoresis under native conditions (no SDS), Western blotting; with or without co-expressed Gαi proteins or AlF4^- treatment. A general note: A gel shift assay detects complexes by their altered migration in electrophoresis.

Experiment [3] concerns the target GFP-Cdt 2–345 QVL (L99R Q188P V189S) (UniProt O88566). Put plainly: sucrose density ultracentrifugation; lysates of transfected HEK293T cells (Triton X-100 buffer) on a linear 12.5-50% sucrose gradient, 201,000g, 16 h, 25 °C; fractions analysed by Western blotting.
Experiment [4] has the same target. The experiment in a line: native gel or EMSA; lysates of transfected HEK293T cells separated by polyacrylamide gel electrophoresis under native conditions (no SDS), Western blotting; with or without co-expressed Gαi proteins or AlF4^- treatment.
Another experiment addresses Gαi2-GST-HA (UniProt P04899). The experiment in a line: pull-down; GST-tagged Gα proteins precipitated on glutathione beads from lysates of HEK293T cells co-transfected with GFP-RGS^Cdt; lysis in 1% Triton X-100 and 10% glycerol in PBS; co-precipitated GFP-RGS^Cdt quantified by Western blotting.
The next experiment addresses Gαi2 G184S (UniProt P04899). The experiment is described as above.
For experiment [5], the target named is GST-RGS^Cdt (Conductin aa 67-210) (UniProt O88566). The experiment in a line: pull-down; in vitro synthesized Gαi2-GFP proteins incubated with purified recombinant GST-RGS^Cdt in PBS with 1% Triton X-100, 10% glycerol and 10 µM GTP; glutathione beads; Western blotting; only the target purified.
In another experiment the target is HA-Cdt 2-345 (UniProt O88566). Put plainly: native gel or EMSA; lysates of transfected HEK293T cells separated by polyacrylamide gel electrophoresis under native conditions (no SDS), Western blotting; with or without co-expressed Gαi proteins or AlF4^- treatment.
The target of experiment [6] is GST-RGS^Cdt (Conductin aa 67-210) (UniProt O88566). The experiment in a line: pull-down; 1 µM His-Gαi2 preloaded with 10 µM GDP, GDP + 30 µM AlCl3 and 5 mM KF, or 10 µM GTPγS, incubated with 1 µM GST proteins in TBS with 0.1% bovine serum albumin, 1 h at RT; glutathione beads; co-precipitated His-Gαi2 by Western blotting; both purified.
Another experiment concerns the target GST-Cdt 2-210 (UniProt O88566). Described as above.

Take “GFP-Cdt 2-345 (from UniProt O88566 2-345) (domain or fragment)”: the binding entry in the experiment with GFP-Cdt 2-345 [1] and with GFP-Cdt 2-345 [2] was “binds” in each case.

In the case of “GFP-Cdt 2–345 QVL (L99R Q188P V189S) (from UniProt O88566 2-345) (domain or fragment)”, the binding entry in [3] and in [4] was “binds” in each case.

Take “GFP-RGS^Cdt (Conductin aa 71-211) (from UniProt O88566 71-211) (domain or fragment)”: the binding result with Gαi2-GST-HA and with Gαi2 G184S was “binds” each time.

Regarding “GFP-RGS^Cdt QVL (L99R Q188P V189S) (from UniProt O88566 71-211) (domain or fragment)”, in the experiment with Gαi2-GST-HA, the binding result is reported as “binds”.

In the case of “Gαi2-GFP (in vitro synthesized) (from UniProt P04899 1-355)”, in experiment [5], the binding entry is on record as “binds”.

With “Gαi2-GFP G293E (in vitro synthesized) (from UniProt P04899 1-355)”, the binding result in experiment [5] is given as “binds”.

“Gαi2-GFP K210N (in vitro synthesized) (from UniProt P04899 1-355)”: the binding entry in [5] is “binds”.

Take “Gαi2-GFP T328S (in vitro synthesized) (from UniProt P04899 1-355)”: in experiment [5], the binding result was “binds”.

In the case of “HA-Cdt 2-345 (from UniProt O88566 2-345) (domain or fragment)”, the binding result with HA-Cdt 2-345 is “binds”.

As to “RGS6xHis-Gαi2 (from UniProt P04899 1-355)”, the binding result (in experiment [6]; with GST-Cdt 2-210) was “binds” throughout.
